Test: Contraction assay on polyurethane foam substrate (skin smoothing / wrinkle reduction)
Conditions: dried 24 hours

With RADARADARADARADA [PuraMatrix ™] the “Contraction of foam substrate (in words)” value (hexadecapeptide treatment) was “contraction is observed” and the “Length after the treatment (distance between ends of foam substrate)” value (initial length of the foam 40 mm, 150 μL heat-treated PuraMatrix on foam with NaCl/CaCl2 salt solution) was 34 mm.
